For this experiment, the target named is Alg5 (UniProt P40350). Put plainly: yeast split ubiquitin assay (FIG. 3F).

Amino acid sequences for entries named in this document (tags omitted).
UniProt P40350: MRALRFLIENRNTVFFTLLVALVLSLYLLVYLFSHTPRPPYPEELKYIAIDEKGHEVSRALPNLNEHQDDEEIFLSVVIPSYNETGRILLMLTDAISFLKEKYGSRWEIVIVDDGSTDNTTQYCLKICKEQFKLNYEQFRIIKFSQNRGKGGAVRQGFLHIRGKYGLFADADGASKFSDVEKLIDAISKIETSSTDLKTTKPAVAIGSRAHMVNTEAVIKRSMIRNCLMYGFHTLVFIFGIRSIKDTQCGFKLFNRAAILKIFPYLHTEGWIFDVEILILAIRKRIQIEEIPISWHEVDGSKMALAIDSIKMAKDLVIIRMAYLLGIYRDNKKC

No constants are given. Whether binding was seen depends on the method and setting. Some binding calls cover weakened binding; strength is not graded here.

Alg5 (from UniProt P40350 1-334): the binding entry is “binds”.
